Reference: publication PMC3979679

What was measured:
[1] = biological target: T1, FLAG-tagged Mind bomb 2 (Mib2) (zebrafish) (UniProt A0AR23); assay: co-IP; COS7 cells co-transfected with FLAG-tagged Mib/Mib2 and Myc- or HA-tagged partner; lysate in IONIC buffer (50 mM Tris HCl pH 7.4, 150 mM NaCl, 1% Triton X-100); anti-FLAG M2 affinity gel 2 h at 4°C; blot with anti-Myc or anti-HA
T1 sequence: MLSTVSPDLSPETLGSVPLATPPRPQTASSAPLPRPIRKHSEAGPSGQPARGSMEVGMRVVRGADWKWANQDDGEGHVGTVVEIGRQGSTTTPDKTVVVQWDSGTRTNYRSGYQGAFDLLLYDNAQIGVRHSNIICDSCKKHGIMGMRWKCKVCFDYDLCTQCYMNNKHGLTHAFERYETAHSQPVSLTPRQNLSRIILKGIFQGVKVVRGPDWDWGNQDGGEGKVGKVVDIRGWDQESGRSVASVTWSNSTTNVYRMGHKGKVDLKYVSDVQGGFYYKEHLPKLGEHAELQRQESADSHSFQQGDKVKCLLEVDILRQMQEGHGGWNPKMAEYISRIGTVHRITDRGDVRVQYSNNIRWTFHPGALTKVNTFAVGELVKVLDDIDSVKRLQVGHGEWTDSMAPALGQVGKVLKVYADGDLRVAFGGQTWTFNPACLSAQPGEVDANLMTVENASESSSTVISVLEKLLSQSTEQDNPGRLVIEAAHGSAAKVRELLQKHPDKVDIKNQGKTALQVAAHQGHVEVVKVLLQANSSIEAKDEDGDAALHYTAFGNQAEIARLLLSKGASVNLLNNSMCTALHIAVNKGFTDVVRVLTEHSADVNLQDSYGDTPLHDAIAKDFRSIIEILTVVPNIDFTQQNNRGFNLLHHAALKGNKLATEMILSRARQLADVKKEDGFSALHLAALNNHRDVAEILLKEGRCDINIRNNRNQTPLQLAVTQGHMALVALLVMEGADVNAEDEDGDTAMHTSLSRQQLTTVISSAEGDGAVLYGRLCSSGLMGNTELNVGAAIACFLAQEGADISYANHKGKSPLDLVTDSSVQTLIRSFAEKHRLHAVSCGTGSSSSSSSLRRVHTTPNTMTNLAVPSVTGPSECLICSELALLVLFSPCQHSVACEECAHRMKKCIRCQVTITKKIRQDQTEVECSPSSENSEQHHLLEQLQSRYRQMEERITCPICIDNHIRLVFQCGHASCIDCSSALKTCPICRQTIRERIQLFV

[2] = biological target: T2, Mib2-C-RF12 (781-999 aa) (zebrafish) (UniProt A0AR23); assay: two-hybrid; first screen (Hybrigenics): LexA DNA-binding domain-bait and Gal4 activation domain-prey, HIS3 reporter, in the nucleus; random-primed Danio rerio embryo (18-20 hpf) cDNA library
T2 sequence: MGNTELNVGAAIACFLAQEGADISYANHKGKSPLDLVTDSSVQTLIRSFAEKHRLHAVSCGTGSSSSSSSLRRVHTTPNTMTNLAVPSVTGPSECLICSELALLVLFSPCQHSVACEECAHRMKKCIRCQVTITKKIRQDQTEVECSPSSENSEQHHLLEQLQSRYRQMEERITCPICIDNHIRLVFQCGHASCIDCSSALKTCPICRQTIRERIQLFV

binding [1]	binding [2]	Substance
binds	–	Usp9 (full length), HA-tagged (from UniProt A0ACM8Q8A5)
–	binds	ubiquitin specific protease 9 (usp9), prey 1980-2363 aa (from UniProt A0ACM8Q8A5) (domain or fragment)

No constants are given. Whether binding was seen depends on the method and setting. Binding calls can cover weak binding; strength is not graded here. For some assays here: Binding seen in cells or lysates may run through a third protein. For some assays here: Sequences can lack the tags named with a protein.
